Results deposited as PubChem BioAssay AID1224826 (NIAID, 2016).
Aim: 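Regulators of Tlr4 signalling leading to Tnf-alpha expression in macrophages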 (primary screen). Cell system: RAW264.7 G9 macrophages from mouse bearing reporters for p65 (GFP) and the Tnf promoter (mCherry). Reagent: siRNA pool against mouse genes, 100 nM. Timing: 16 h of LPS stimulation, after 2 days of siRNA transfection. Treatment: bacterial lipopolysaccharide (Salmonella minnesota R595), 10 ng/ml. Detection: 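Imaged Tnf reporter mCherry in nuclei, minus background, normalised per plate to the median and expressed as robust z-scores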. Direction: Tnf reporter robust z-score: higher = stronger Tnf promoter reporter signal after LPS; Tnf reporter intensity: higher = stronger Tnf promoter reporter signal. Active means: 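Called active when robust z-score is at most -1.3, matching the median of the Tlr4 knock-down control, or over 3; control wells and wells with under 50 cells never active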. Calls: active = Tnf reporter clearly lowered or raised; inactive = no clear change in Tnf reporter.
The whole screen tested about 17,000 reagents; shown is a random part of them. In the full data, about 1,110 (6.6%) are marked active. 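Active means lowered or raised reporter signal; replicate intensities are raw and not normalised per plate.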 Entries without a mark were called inactive.

The first 3 records, to show the layout:
Tnf reporter robust z-score,fewer than 50 cells in well,"Tnf reporter intensity, replicate 1","Tnf reporter intensity, replicate 2",gene
,fewer than 50 cells per well; well left out of calls,96.1,90.8,Brip1
,fewer than 50 cells per well; well left out of calls,121,99.6,Plxnb2
-0.21,enough cells in well,114,82.5,Tnfrsf26

The list itself, repeating the preview:
Tnf reporter robust z-score,fewer than 50 cells in well,"Tnf reporter intensity, replicate 1","Tnf reporter intensity, replicate 2",gene
,fewer than 50 cells per well; well left out of calls,96.1,90.8,Brip1
,fewer than 50 cells per well; well left out of calls,121,99.6,Plxnb2
-0.21,enough cells in well,114,82.5,Tnfrsf26
-0.77,enough cells in well,183,162,Nab2
-1.35 (active),enough cells in well,135,115,Farsa
0.72,enough cells in well,250,193,Irak3
-1.14,enough cells in well,74.2,44.9,Tll2
-1.86 (active),enough cells in well,61.6,44.1,Rnf114
-0.43,enough cells in well,105,115,Zfp74
0.3,enough cells in well,260,90.4,Or4k40
-0.14,enough cells in well,322,178,Ptprk
0.33,enough cells in well,229,194,Impdh1
-0.86,enough cells in well,105,120,Zfp763
-1.5 (active),enough cells in well,30.7,55,Or9r3
-0.23,enough cells in well,204,221,Eif2b2
-0.78,enough cells in well,165,112,Fkbp7
0.04,enough cells in well,287,214,Fkbp4
-0.21,enough cells in well,207,175,Gdpd5
1.38,enough cells in well,273,168,Dpysl4
-0.03,enough cells in well,189,200,Amigo3
-0.2,enough cells in well,188,129,Or12d12
,fewer than 50 cells per well; well left out of calls,131,99.6,Rexo1
0.92,enough cells in well,225,46.6,Usp48
0.15,enough cells in well,141,131,Pla2g12a
